Assay results reported in publication PMC8405816.
Results are given in words; binding and its absence hold for the method and conditions named. In cells and extracts the contact can be indirect. Some results given as binding are weak or reduced against the parent protein; the word gives no strength. For part of these data: Sequences can lack the tags named with a protein.

Amino acid sequences for entries named in this document (tags omitted).
UniProt P12956: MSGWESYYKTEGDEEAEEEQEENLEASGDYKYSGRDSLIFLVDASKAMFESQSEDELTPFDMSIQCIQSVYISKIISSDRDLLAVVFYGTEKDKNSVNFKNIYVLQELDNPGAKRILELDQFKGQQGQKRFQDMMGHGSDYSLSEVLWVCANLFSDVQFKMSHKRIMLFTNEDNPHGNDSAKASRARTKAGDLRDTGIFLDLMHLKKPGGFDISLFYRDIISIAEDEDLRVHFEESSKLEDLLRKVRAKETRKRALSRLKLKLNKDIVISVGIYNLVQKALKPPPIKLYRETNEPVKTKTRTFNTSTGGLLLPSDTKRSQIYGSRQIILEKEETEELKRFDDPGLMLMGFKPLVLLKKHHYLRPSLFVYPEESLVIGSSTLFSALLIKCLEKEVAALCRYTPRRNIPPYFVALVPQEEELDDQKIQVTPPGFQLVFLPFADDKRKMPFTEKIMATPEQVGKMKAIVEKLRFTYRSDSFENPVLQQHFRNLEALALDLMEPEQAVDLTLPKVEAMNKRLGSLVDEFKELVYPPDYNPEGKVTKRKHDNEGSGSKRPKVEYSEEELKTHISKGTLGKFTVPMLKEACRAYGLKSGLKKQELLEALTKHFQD
UniProt P13010: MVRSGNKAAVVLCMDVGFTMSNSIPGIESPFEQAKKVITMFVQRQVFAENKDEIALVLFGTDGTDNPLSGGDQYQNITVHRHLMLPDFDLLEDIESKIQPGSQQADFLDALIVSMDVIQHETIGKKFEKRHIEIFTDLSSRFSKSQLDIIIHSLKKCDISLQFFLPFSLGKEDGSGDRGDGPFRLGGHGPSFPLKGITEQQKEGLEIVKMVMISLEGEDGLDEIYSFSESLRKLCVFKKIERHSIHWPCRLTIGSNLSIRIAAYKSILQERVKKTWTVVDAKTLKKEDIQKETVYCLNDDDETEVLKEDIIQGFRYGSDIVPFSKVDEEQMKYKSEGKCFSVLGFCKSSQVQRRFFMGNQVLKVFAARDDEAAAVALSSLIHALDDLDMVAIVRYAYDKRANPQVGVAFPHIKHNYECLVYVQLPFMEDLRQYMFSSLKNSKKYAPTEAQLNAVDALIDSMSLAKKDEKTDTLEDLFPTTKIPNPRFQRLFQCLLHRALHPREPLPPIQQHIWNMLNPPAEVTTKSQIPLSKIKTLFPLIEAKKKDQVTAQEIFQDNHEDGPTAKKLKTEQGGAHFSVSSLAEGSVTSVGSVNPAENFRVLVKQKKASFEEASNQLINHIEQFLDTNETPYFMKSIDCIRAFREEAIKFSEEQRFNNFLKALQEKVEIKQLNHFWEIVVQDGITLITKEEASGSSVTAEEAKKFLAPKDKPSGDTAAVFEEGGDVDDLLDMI

T1: pcDNA3.1-FLAG-VAV2 (UniProt P52735)
T1 sequence: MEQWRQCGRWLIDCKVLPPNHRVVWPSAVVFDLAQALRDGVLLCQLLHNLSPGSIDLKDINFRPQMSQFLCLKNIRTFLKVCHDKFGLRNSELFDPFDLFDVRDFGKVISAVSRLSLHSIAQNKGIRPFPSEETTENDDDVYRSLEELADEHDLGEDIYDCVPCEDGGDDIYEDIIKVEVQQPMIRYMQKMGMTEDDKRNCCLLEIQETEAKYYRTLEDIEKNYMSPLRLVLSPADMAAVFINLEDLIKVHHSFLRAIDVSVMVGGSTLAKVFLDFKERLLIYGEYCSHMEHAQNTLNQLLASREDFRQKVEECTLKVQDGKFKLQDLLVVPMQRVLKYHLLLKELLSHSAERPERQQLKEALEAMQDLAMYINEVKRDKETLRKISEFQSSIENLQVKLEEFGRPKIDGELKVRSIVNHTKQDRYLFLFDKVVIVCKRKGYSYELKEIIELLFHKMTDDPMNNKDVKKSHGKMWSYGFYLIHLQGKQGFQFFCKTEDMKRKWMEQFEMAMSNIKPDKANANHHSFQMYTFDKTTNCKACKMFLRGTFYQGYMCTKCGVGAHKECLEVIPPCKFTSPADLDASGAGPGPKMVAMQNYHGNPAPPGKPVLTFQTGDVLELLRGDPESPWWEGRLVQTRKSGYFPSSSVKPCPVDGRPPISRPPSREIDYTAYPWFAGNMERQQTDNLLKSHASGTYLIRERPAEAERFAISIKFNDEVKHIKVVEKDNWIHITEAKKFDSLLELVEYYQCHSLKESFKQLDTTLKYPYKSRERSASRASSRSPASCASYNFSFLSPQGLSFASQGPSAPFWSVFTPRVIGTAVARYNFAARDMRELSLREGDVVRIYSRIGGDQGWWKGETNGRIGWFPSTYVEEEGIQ

T2: FLAG-tagged VAV2 (UniProt P52735)
T2 sequence: T1 sequence

T3: VAV2 (endogenous) (human (endogenous in KYSE30, KYSE150, KYSE450)) (UniProt P52735)
T3 sequence: T1 sequence

B1: VAV2 (stably overexpressed by lentivirus) (protein, UniProt P52735 1-878)
chain: T1 sequence
B2: VAV2 (endogenous) (protein, UniProt P52735 1-878)
chain: T1 sequence

Experiments:
[1] = target: T1, pcDNA3.1-FLAG-VAV2; experiment: co-IP; KYSE150 cells co-transfected with HIS-XRCC6 or MYC-XRCC5 and various truncations of FLAG VAV2; lysates immunoprecipitated and Western blotted
[2] = target: T2, FLAG-tagged VAV2; experiment: co-IP; lysates of ESCC cells ectopically expressing FLAG-tagged VAV2, with or without siVAV2, immunoprecipitated with anti-FLAG or IgG, Western blot of FLAG-VAV2, Ku70 and Ku80
[3] = target: T3, VAV2 (endogenous) (human (endogenous in KYSE30, KYSE150, KYSE450)); experiment: co-IP; RIPA lysates of KYSE150 and KYSE450 cells, immunoprecipitated with antibody against VAV2, Ku70 or Ku80 on Protein G Dynabeads, IgG as control, Western blot; also anti-Ku70 IP from ESCC cells overexpressing VAV2
[4] = target: Ku70 (endogenous) (human (endogenous in KYSE30, KYSE150, KYSE450)) (UniProt P12956); experiment: as above
[5] = target: Ku80 (endogenous) (human (endogenous in KYSE30, KYSE150, KYSE450)) (UniProt P13010); experiment: as above

Row | Molecule | binding [1] | binding [2] | binding [3] | binding [4] | other results
1 | HIS-XRCC6 (producing Ku70) (from UniProt P12956 1-609) | binds |  |  |  | 
2 | Ku80 (endogenous) (from UniProt P13010 1-732) |  | binds | binds |  | 
3 | Ku70 (endogenous) (from UniProt P12956 1-609) |  | binds | binds |  | 
4 | MYC-XRCC5 (producing Ku80) (from UniProt P13010 1-732) | binds weakly |  |  |  | 
5 | B1 |  |  |  | binds | 
6 | B2 |  |  |  | binds | binding [5]: binds
